# Assay results as given in PubChem BioAssay AID2662 (National Center for Advancing Translational Sciences (NCATS), 2010).
# Sequences of proteins named here, by UniProt entry; tags and fusion partners are left off.
# UniProt Q03164, whole entry, looked up: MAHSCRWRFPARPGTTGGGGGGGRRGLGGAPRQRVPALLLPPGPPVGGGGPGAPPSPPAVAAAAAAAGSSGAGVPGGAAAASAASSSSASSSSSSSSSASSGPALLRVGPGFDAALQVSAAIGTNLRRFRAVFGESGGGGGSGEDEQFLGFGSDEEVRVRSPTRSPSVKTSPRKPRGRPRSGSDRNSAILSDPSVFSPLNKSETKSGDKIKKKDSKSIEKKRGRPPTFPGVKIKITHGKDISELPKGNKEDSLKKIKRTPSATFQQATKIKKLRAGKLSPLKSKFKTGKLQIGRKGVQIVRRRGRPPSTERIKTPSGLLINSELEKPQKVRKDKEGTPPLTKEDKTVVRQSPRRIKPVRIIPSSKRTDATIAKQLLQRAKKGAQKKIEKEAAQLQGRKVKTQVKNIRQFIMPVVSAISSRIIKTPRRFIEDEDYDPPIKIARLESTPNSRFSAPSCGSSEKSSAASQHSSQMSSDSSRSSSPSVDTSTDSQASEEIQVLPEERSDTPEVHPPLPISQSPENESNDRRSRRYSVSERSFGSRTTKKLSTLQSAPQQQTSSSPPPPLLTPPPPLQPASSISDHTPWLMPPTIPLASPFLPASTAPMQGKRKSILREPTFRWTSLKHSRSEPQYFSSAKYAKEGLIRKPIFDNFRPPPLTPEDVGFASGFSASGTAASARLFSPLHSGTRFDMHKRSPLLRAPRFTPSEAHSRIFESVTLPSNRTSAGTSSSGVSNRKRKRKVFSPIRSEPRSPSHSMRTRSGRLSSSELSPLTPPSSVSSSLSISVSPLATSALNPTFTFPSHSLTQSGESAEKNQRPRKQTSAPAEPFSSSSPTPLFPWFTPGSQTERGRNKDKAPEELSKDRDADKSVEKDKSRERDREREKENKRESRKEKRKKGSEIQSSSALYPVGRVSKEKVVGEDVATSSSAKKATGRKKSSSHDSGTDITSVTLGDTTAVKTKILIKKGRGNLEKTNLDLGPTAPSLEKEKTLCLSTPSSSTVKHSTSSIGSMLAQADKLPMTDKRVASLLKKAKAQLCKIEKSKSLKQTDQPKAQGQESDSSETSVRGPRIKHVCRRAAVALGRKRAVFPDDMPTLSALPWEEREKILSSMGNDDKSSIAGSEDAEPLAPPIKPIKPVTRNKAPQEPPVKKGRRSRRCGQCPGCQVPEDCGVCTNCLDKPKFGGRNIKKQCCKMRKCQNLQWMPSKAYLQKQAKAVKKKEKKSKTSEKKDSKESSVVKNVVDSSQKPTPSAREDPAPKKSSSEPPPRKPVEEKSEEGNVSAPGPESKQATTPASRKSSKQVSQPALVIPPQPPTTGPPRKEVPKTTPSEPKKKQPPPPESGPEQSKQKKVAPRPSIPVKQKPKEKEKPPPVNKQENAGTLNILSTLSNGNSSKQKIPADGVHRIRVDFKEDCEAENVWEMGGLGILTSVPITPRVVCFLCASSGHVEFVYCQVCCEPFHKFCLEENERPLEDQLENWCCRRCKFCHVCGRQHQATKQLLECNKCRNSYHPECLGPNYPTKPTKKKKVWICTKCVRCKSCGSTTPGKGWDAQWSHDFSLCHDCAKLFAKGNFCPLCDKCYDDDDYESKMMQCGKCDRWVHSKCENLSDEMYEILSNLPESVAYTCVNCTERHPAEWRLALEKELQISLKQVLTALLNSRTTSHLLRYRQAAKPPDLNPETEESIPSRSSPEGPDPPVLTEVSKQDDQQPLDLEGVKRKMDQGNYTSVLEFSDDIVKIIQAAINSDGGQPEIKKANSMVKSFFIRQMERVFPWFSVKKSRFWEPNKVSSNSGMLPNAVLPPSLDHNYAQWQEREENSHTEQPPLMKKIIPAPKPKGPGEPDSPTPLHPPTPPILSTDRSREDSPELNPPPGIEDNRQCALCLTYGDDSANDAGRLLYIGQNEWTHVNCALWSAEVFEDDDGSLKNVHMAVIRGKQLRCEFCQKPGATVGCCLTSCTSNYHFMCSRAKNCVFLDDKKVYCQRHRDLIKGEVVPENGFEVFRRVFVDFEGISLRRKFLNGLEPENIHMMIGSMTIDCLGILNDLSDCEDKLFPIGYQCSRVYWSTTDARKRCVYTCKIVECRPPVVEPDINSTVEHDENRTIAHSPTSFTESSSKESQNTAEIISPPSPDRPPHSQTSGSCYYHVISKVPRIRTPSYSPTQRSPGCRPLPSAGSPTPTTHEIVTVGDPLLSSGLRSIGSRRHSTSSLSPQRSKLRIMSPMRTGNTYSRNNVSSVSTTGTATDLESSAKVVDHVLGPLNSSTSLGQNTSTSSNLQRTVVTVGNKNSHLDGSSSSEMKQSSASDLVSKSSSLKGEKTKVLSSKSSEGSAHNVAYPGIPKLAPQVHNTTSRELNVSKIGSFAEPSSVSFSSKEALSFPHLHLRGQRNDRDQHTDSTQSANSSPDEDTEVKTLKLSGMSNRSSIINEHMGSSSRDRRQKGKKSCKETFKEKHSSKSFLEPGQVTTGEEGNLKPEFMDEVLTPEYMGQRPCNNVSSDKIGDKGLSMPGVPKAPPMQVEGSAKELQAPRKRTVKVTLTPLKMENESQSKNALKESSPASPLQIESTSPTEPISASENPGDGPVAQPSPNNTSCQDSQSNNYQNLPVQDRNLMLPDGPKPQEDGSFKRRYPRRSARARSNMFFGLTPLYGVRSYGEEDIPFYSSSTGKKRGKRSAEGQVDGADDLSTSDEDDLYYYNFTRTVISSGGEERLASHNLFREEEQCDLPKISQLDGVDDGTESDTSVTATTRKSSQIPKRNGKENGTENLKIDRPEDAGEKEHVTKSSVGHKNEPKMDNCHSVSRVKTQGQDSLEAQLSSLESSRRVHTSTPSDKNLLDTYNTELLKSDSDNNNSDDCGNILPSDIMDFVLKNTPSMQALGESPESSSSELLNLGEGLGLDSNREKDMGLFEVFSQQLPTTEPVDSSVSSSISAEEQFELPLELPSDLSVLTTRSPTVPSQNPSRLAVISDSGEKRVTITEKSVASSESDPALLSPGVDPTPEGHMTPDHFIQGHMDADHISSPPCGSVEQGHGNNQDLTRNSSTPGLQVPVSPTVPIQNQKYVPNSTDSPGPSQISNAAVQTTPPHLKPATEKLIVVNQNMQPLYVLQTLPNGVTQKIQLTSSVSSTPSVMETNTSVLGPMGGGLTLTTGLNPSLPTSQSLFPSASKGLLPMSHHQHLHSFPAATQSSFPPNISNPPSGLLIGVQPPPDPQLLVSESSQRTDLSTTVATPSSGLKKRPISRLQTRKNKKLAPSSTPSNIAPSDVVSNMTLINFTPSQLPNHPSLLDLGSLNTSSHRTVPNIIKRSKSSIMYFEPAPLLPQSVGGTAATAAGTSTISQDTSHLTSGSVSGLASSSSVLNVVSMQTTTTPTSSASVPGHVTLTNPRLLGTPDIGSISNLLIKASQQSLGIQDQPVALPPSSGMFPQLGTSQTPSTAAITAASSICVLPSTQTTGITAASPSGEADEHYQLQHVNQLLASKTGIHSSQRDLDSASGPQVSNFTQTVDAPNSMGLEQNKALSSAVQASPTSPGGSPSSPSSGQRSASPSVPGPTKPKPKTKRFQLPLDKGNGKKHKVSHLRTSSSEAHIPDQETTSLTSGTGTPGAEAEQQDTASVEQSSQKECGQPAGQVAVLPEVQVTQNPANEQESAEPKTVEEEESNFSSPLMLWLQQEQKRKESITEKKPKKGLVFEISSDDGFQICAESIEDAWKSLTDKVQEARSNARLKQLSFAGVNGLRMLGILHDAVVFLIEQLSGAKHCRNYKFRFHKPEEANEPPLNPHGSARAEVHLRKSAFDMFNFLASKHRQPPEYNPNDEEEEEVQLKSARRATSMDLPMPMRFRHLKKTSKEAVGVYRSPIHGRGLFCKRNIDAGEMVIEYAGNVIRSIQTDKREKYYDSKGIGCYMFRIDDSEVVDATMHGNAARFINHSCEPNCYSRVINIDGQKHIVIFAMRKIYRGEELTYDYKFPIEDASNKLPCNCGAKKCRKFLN
# Several values for one entry are separate records, joined by “and”; a condition that tells them apart may be missing. Equal entries are not always repeated. The campaign covered roughly 290,000 compounds. About 110 (0.038%) were called active. Inconclusive results, whose numbers are uncertain, are shown with a selection of clear calls. Calls come from the whole dose curve; as a rule, active = well fitted inhibition curve with a large enough effect in the polarisation, with a control signal flat (not every such curve was filed as active); inconclusive = small, poorly fitted or top-dose-only effect, or effect the other way, or a change in a side signal; inactive = no such curve, though single readings can be large or run the other way; the % refers to the polarisation. Potencies of inconclusive entries are doubtful fits and often do not repeat. A note “side channel” means that the fit belongs to a control or component signal, not to the main read-out.
# Molecular target: Histone-lysine N-methyltransferase 2A (Homo sapiens) (UniProt Q03164)
# Experiment: qHTS Fluorescence Polarization Assay for Inhibitors of MLL CXXC domain - DNA interaction
# Conditions: MLL-CXXC / FITC-HOXA9 DNA fluorescence polarization; series mostly up to 115 µM
# In short: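 Fluorescence polarization: 7 uM MLL-CXXC (stock) preincubated 5 min with compounds, then 50 nM fluorescein-HOX-A9 DNA (stock) added; 30 min ambient. Buffer 50 mM Tris-HCl pH 7.5, 50 mM NaCl, 1 mM DTT, 0.05% BSA.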
# Potency is the fitted concentration of half-maximal effect.
row,SMILES,Potency
1,O=Nc1c(-c2c(O)[nH]c3cc(Br)ccc23)[nH]c2ccccc12,"inconclusive: 8.91 µM [quencher, side channel, full curve, poor fit] and inconclusive: 17.8 µM [quencher, side channel, partial curve]"
2,COc1ccc(NC(=O)c2sc3nc(C)cc(C)c3c2N)cc1,inactive
3,Nc1ccc2c(C(F)(F)F)cc(C(F)(F)F)nc2n1,"inconclusive: 70.8 µM [inhibitor, single point]"
4,O=C1c2ccccc2-n2c1nc1ccccc1c2=O,"inconclusive: 31.6 µM [inhibitor, partial curve]"
5,Nc1nc2[nH]cc(CCc3ccc(C(=O)NC(CCC(=O)O)C(=O)O)cc3)c2c(=O)[nH]1 (stereo unspecified),inactive
6,Cc1cc2nsnc2c(S(=O)(=O)N2CCN(C)CC2)c1C,"inconclusive: 12.6 µM [fluorescent, side channel, full curve]"
7,Cc1noc(C)c1CSc1nnc(C)c(=O)[nH]1,inactive
8,O=C(CSc1nnc2c3ccccc3c3ccccc3c2n1)Nc1ccccc1F,inactive
9,CC(=O)c1ccc(NC(=S)Nc2ccc(Br)c(Cl)c2)cc1,inactive
10,O=C(NCCCN1CCCC1=O)Nc1ccc(Br)cc1Cl,"inconclusive: 70.8 µM [fluorescent, side channel, single point]"
11,C/C(=N\Nc1ccc(F)cc1F)c1ccc(N2CCOCC2)cc1,inactive
12,CC(=O)Nc1ccc(NC(=O)c2ccc([N+](=O)[O-])cc2Cl)cc1,"inconclusive: 8.91 µM [fluorescent, side channel, single point]"
13,O=C(c1cccc(C(F)(F)F)c1)C1CCCN(Cc2cccc(OCCO)c2)C1 (stereo unspecified),inactive
14,Oc1ccc(Nc2nc(N3CCCC3)c3ccccc3n2)cc1,"inconclusive: 25.1 µM [quencher, side channel, partial curve]"
15,Cc1[nH]c2ccccc2c1/C=C/c1cc[n+](C)cc1,"inconclusive: 35.5 µM [fluorescent, side channel, partial curve]"
16,CC1CC(C)CN(c2nc(NCc3ccco3)nc(N)c2[N+](=O)[O-])C1 (stereo unspecified),"inconclusive: 11.2 µM [fluorescent, side channel, full curve, poor fit]"
17,CCCC(=O)NC(c1ccc2c(c1)OCO2)c1cc(Cl)c2cccnc2c1O (stereo unspecified),"inconclusive: 44.7 µM [fluorescent, side channel, partial curve]"
18,CCN1/C(=C2\C(=O)N(C)C(=S)N2C)C=Cc2ccccc21,"inconclusive: 39.8 µM [quencher, side channel, single point]"
20,COC(=O)C1=CN(C(C)C)C=C(C(=O)OC)C1c1cc(Br)c(OC)c(OC)c1,inactive
21,COCC(=O)N1CCC(Oc2ccc(C(=O)NCc3cc(C)no3)cc2)CC1,"inconclusive: 70.8 µM [quencher, side channel, partial curve, poor fit]"
22,Oc1c(C2=NCCNC(C(F)(F)F)=C2)ccc2ccccc12,"inconclusive: 35.5 µM [quencher, side channel, single point]"

row,SMILES,Potency
1,Cc1cc2nc3c(=O)n(CCc4ccccc4)c(=O)[nH]c3nc2cc1N,"inconclusive: 6.31 µM [fluorescent, side channel, full curve]"
2,COc1cc(/C=N/NC(=O)c2ccncc2)ccc1OC(=O)c1ccc([N+](=O)[O-])cc1,inactive
3,Cc1ccc(S(=O)(=O)NCC(=O)N2CCCC2)cc1,inactive
4,NC(=O)N/N=C/c1ccc([N+](=O)[O-])o1,inactive
5,CCCCCCn1c(C)nc2c(c1=O)c1nc3ccccc3nc1n2/N=C/c1ccco1,inactive
6,Cc1cc(NC(=O)Cn2nc([N+](=O)[O-])c(Br)c2C)no1,inactive
7,O=C(Oc1ccc(C(=S)N2CCOCC2)cc1)c1ccc(F)cc1,"inconclusive: 39.8 µM [fluorescent, side channel, single point]"
8,CC(C)/C=C1\CC/C(=C\c2ccc(N(C)C)cc2)C1=O,"inconclusive: 6.31 µM [fluorescent, side channel, full curve]"
9,COC(=O)c1ccc(CSc2n[nH]c(-c3ccccc3)n2)o1,"inconclusive: 7.94 µM [fluorescent, side channel, single point]"
10,O=C(NCc1ccc2c(c1)OCO2)C1CCN(S(=O)(=O)c2cccs2)CC1,inactive
11,O=C(NCc1cc([N+](=O)[O-])ccc1O)c1cccnc1Sc1ccccc1,"inconclusive: 14.1 µM [fluorescent, side channel, partial curve, poor fit]"
12,Cc1ccc(/C=C/C(=O)Nc2ccc(S(=O)(=O)Nc3onc(C)c3C)cc2)cc1,inactive
13,Nc1c(C(=O)NC2CC2)sc2nc3c(c(-c4ccco4)c12)CC/C3=C/c1ccco1,inactive
14,COc1ccc(OCCCn2ccnc2)cc1,"inconclusive: 15.8 µM [fluorescent, side channel, partial curve]"
15,CN1C(=O)C(=O)/C(=C(/O)c2ccc(Br)cc2)C1c1ccc(Cl)cc1 (stereo unspecified),inactive
16,CC(=O)OCC(=O)[C@@]1(O)[C@H](C)C[C@@H]2[C@H]3CCC4=CC(=O)C=C[C@]4(C)[C@]3(F)[C@@H](O)C[C@@]21C,inactive
17,O=C(c1ccccc1Br)N1CCN(c2ccccn2)CC1,"inconclusive: 39.8 µM [quencher, side channel, single point]"
18,COc1cc(/C=N/Nc2nc(Nc3ccc(C)cc3)nc(-n3nc(C)cc3C)n2)cc(OC)c1OC,inactive
19,CCn1c(O)c(/C=N/N=C/c2ccc(OC)cc2)c2cc(C3=NNC(=O)CC3)ccc21,"inconclusive: 22.4 µM [fluorescent, partial curve]"
20,CC(C)COC(=O)c1cccc2c1-c1ccccc1/C2=N\O,"inconclusive: 31.6 µM [quencher, side channel, single point]"
21,O=C(c1ccc2c(c1)OCCO2)C1CCN(S(=O)(=O)c2ccccc2F)CC1,inactive
22,Cc1cccc(OCC(=O)Nc2ccc3oc(=O)ccc3c2)c1,inactive

# By substructure: the compounds so far with two or more sulfur atoms (2)
row,SMILES,Potency
6,Cc1cc2nsnc2c(S(=O)(=O)N2CCN(C)CC2)c1C,"inconclusive: 12.6 µM [fluorescent, side channel, full curve]"
10,O=C(NCc1ccc2c(c1)OCO2)C1CCN(S(=O)(=O)c2cccs2)CC1,inactive

# Continuation:

row,SMILES,Potency
1,Oc1c(Cl)cc(Cl)cc1CNc1nccs1,inactive
2,COc1cc(C(c2c(C(=O)O)[nH]c3ccccc23)c2c(C(=O)O)[nH]c3ccccc23)ccc1OCc1ccccc1,"inconclusive: 2.51 µM [inhibitor, full curve, poor fit]"
3,Cc1cc(NC(=O)C2CCCCC2)nc2c1c(=O)oc1ccccc12,"inconclusive: 5.62 µM [quencher, side channel, full curve]"
4,Cc1ccc(CNC(=O)CSc2c3c(nc4cc(Cl)ccc24)CCCC3)o1,"inconclusive: 2.24 µM [fluorescent, side channel, full curve, poor fit]"
5,Cc1cccc(C(=O)N/N=C/C(C)Cc2ccc3c(c2)OCO3)c1 (stereo unspecified),"inconclusive: 15.8 µM [fluorescent, side channel, single point]"
6,CC1=CC(=O)NS(=O)(=O)O1,"inconclusive: 112 µM [fluorescent, side channel, partial curve, poor fit]"
7,COc1ccc(-c2[nH]ncc2CNCCn2cccn2)c(F)c1,inactive
8,COc1cc(/C=C2\C(=O)N(C)C(=S)N2C)ccc1O,"inconclusive: 12.6 µM [fluorescent, side channel, partial curve]"
9,CN(C(=O)c1ccccc1)c1ccccc1C(=O)NCCc1ccccc1,"inconclusive: 10 µM [fluorescent, side channel, single point]"
10,COc1cccc(C(=O)OCC(=O)NCCCc2ccccc2)c1,"inconclusive: 39.8 µM [inhibitor, partial curve]"
11,O=C(COc1cccnc1[N+](=O)[O-])N1CCN(S(=O)(=O)c2ccccc2)CC1,inactive
12,CCn1c(O)c(/C=C2\C=Nc3ccccc32)sc1=Nc1ccccc1,inactive
13,Clc1ccc(-c2cc(-c3nnc4n3CCCCC4)c3ccccc3n2)cc1,"inconclusive: 8.91 µM [quencher, side channel, single point]"
14,CC(=O)N[C@@H](CCC(=O)O)C(=O)O,"inconclusive: 28.2 µM [fluorescent, side channel, full curve, poor fit]"
15,COc1cc2c(cc1OC)CN(C(=O)/C=C/c1ccc(F)cc1)CC2,inactive
16,O=C(c1ccccc1)N1N=C(c2ccccc2O)CC1c1ccccc1 (stereo unspecified),"inconclusive: 31.6 µM [fluorescent, side channel, single point]"
17,O=c1oc(Cl)c(Cl)c2ccccc12,inactive
18,CC(=Nc1ccc(O)cc1)c1sc2ccccc2c1O,"inconclusive: 56.2 µM [fluorescent, side channel, single point]"
19,S=c1[nH]nc(COc2ccccc2)n1/N=C/C(Cl)=C/c1ccccc1,"inconclusive: 35.5 µM [inhibitor, partial curve]"
20,CN(c1ccc(OCC(=O)N2CCN(c3ccc(F)cc3)CC2)cc1)S(=O)(=O)c1cccs1,"inconclusive: 1.12 µM [fluorescent, side channel, partial curve, poor fit]"
21,O=C(O)CN1C(=O)/C(=C\c2ccccc2OCc2ccc(Cl)cc2Cl)SC1=S,"inconclusive: 100 µM [inhibitor, partial curve, poor fit]"
22,COCc1cc(C)nc2sc(C(=O)Nc3nccs3)c(N)c12,inactive
